Article PMC12164589
Results are given in words; binding and its absence hold for the method and conditions named. Binding calls can cover weak binding; strength is not graded here. For part of these data: Binding seen in cells or lysates may run through a third protein. For part of these data: Where a sequence is shown, tags or fusion partners need not be part of it.

T1: recombinant AUR1 of the pull-down with CCS52A2_(WD40) and CCS52B_(WD40) (Arabidopsis thaliana) (UniProt Q9M077)
T1 sequence: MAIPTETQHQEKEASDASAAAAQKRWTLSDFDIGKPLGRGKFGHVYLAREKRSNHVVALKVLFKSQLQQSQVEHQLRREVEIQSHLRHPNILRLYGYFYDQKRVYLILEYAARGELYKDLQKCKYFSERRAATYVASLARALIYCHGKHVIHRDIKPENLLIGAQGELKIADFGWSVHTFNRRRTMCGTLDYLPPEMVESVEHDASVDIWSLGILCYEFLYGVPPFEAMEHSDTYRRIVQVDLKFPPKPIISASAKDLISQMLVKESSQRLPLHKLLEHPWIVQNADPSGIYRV


Key:
[1] = target: T1, recombinant AUR1 of the pull-down with CCS52A2_(WD40) and CCS52B_(WD40) (Arabidopsis thaliana); test: pull-down; 4 ug purified proteins with different epitopes in 500 uL binding buffer (300 mM NaCl, 50 mM Tris-HCl pH 8.0, 1 mM PMSF, 1 mM DTT), 4 C 4 h, then Ni-NTA beads 2 h; His- or SUMO-tagged AUR1 held on Ni-NTA, GST proteins detected by anti-GST; both purified
[2] = target: AUR1△D-box-nLUC (Arabidopsis thaliana); test: split reporter; split-luciferase complementation, nLUC and cLUC fusions co-expressed in N. benthamiana leaves with P19
[3] = target: AUR1△D-box-FLAG (Arabidopsis thaliana); test: co-IP; proteins transiently co-expressed in N. benthamiana leaves; supernatants incubated with affinity beads (anti-FLAG or anti-GFP) at 4 C for 4 h, washed 3 times, immunoblot
[4] = target: AUR1 D-box domain fragment as yeast two-hybrid bait in pGBKT7 (Arabidopsis thaliana); test: two-hybrid; full-length AUR1 and deletion derivatives as bait in pGBKT7, preys in pGADT7; growth on SD/-WLHA, SD/-WLH and SD/-WL

Row | binding [1] | binding [2] | Molecule | other results
1 | binds |  | CCS52B_(WD40), truncated form including WD40 repeats (GST fusion) (Arabidopsis thaliana) (domain or fragment) | 
2 | binds |  | CCS52A2_(WD40), truncated form including WD40 repeats (GST fusion) (Arabidopsis thaliana) (domain or fragment) | 
3 |  | binds | CDC20.1-cLUC (protein, UniProt Q9SZA4 1-457) MDAGMNNTSSHYKTQARCPLQEHFLPRKPSKENLDRFIPNRSAMNFDYAHFALTEGRKGKDQTAAVSSPSKEAYRKQLAETMNLNHTRILAFRNKPQAPVELLPSNHSASLHQQPKSVKPRRYIPQTSERTLDAPDIVDDFYLNLLDWGSANVLAIALDHTVYLWDASTGSTSELVTIDEEKGPVTSINWAPDGRHVAVGLNNSEVQLWDSASNRQLRTLKGGHQSRVGSLAWNNHILTTGGMDGLIINNDVRIRSPIVETYRGHTQEVCGLKWSGSGQQLASGGNDNVVHIWDRSVASSNSTTQWLHRLEEHTSAVKALAWCPFQANLLATGGGGGDRTIKFWNTHTGACLNSVDTGSQVCSLLWSKNERELLSSHGFTQNQLTLWKYPSMVKMAELTGHTSRVLYMAQSPDGCTVASAAGDETLRFWNVFGVPETAKKAAPKAVSEPFSHVNRIR | 
4 |  |  | CDC20.1-GFP (protein, UniProt Q9SZA4 1-457) MDAGMNNTSSHYKTQARCPLQEHFLPRKPSKENLDRFIPNRSAMNFDYAHFALTEGRKGKDQTAAVSSPSKEAYRKQLAETMNLNHTRILAFRNKPQAPVELLPSNHSASLHQQPKSVKPRRYIPQTSERTLDAPDIVDDFYLNLLDWGSANVLAIALDHTVYLWDASTGSTSELVTIDEEKGPVTSINWAPDGRHVAVGLNNSEVQLWDSASNRQLRTLKGGHQSRVGSLAWNNHILTTGGMDGLIINNDVRIRSPIVETYRGHTQEVCGLKWSGSGQQLASGGNDNVVHIWDRSVASSNSTTQWLHRLEEHTSAVKALAWCPFQANLLATGGGGGDRTIKFWNTHTGACLNSVDTGSQVCSLLWSKNERELLSSHGFTQNQLTLWKYPSMVKMAELTGHTSRVLYMAQSPDGCTVASAAGDETLRFWNVFGVPETAKKAAPKAVSEPFSHVNRIR | binding [3]: binds
5 |  |  | full-length APC10 as yeast two-hybrid prey in pGADT7 (protein, UniProt Q9ZPW2 1-192) MATESSESEEEGKISGGNYKLIIDDDLREMGKNAAWSVSSCKPGNGVTTLRDDNLETYWQSDGLQPHLINIQFQKKVKLQLVVLYVDFKLDESYTPSKISIRAGDGFHNLKEIKSVELVKPTGWVCLSLSGTDPRETFVNTFMLQIAILSNHLNGRDTHIRQIKVYGPRPNPIPHQPFQFTSMEFLTYSTLR | binding [4]: binds
6 |  | no binding | APC10-cLUC (protein, UniProt Q9ZPW2 1-192) MATESSESEEEGKISGGNYKLIIDDDLREMGKNAAWSVSSCKPGNGVTTLRDDNLETYWQSDGLQPHLINIQFQKKVKLQLVVLYVDFKLDESYTPSKISIRAGDGFHNLKEIKSVELVKPTGWVCLSLSGTDPRETFVNTFMLQIAILSNHLNGRDTHIRQIKVYGPRPNPIPHQPFQFTSMEFLTYSTLR | 
